Data from patent US20100004235A1, “Heterocyclic Substituted, Anellated Pyrazole Derivative and its uses” (BAYER HEALTHCARE AG, priority 2006, published 2010).

System: rabbit aorta rings
Assay: Vasorelaxant effect in vitro (rabbit aorta rings, phenylephrine-induced contraction)
Conditions: Oryctolagus cuniculus; concentration reducing the height of the phenylephrine-induced contraction of rabbit aorta rings by 50%; 0.1% DMSO
Procedure: Rabbits are stunned by a blow to the neck and exsanguinated. The aorta is removed, freed from adhering tissue and divided into rings of a width of 1.5 mm. The rings are placed individually under an initial tension in 5 ml organ baths with Krebs-Henseleit solution which is at 37° C., is gassed with carbogen and has the following composition (in each case mM): NaCl: 119; KCl: 4.8; CaCl2×2H2O: 1; MgSO4×7H2O: 1.4; KH2PO4: 1.2; NaHCO3: 25; glucose: 10. The force of contraction is detected with Statham UC2 cells, amplified and digitized via A/D converters (DAS-1802 HC, Keithley Instruments, Munich) and recorded in parallel on chart recorders. Contractions are induced by cumulatively adding increasing concentrations of phenylephrine to the bath. After several control cycles, the substance to be investigated is added in each further run in increasing dosage, and the height of the contraction achieved is compared with the height of the contraction reached in the last preceding one. The concentration necessary to reduce the height of the control value by 50% is calculated from this (IC50 value). The standard application volume is 5 μl, the proportion of DMSO in the bath solution corresponds to 0.1%.

An IC50 of 950 nM was found for CC(C)n1c(-c2nn(Cc3ccccc3F)c3ncccc23)n[nH]c1=O [Example 6, 5-[1-(2-Fluorobenzyl)-1H-pyrazolo[3,4-b]pyridin-3-yl]-4-isopropyl-2,4-dihydro-3H-1,2,4-triazol-3-one] in this work.
